The values below come from paper PMC10714768.

For part of these data: No signal at the amounts used counts as a negative. For part of these data: The exact form of at least one protein or probe is not confirmed.

In data set [1] the test system is MtrA (Orf1029) (Actinoplanes deccanensis YP-1). Kind of data set: EMSA. The conditions noted are these: 0.05-0.1 ug MtrA in 10 uL; EMSA in 10 uL mix with 0.025-0.1 ug protein; pH and temperature not given (as described previously); recombinant protein; residues 1-233; protein details: His-tag (pET28a); label: 5'-FAM; probe letters rebuilt from the primers and the genome; part of a longer molecule. (In general: Mobility shift assays separate free from complexed probe on a gel.)

Data set [2] has as its system Orf9379 (Actinoplanes deccanensis YP-1). In words: EMSA. The conditions noted are these: EMSA in 10 uL mix with 0.025-0.1 ug protein; pH and temperature not given (as described previously); recombinant protein; residues 1-225; protein details: His-tag (pET28a); label: 5'-FAM; probe letters rebuilt from the primers and the genome; part of a longer molecule.
Data set [3] relates to MtrA (Orf1029) (Actinoplanes deccanensis YP-1). Kind of data set: DNase I footprinting. The conditions noted are these: 5 ug MtrA; recombinant protein; residues 1-233; protein details: His-tag (pET28a); label: 5'-FAM; probe letters rebuilt from the primers and the genome; part of a longer molecule.

Regarding “TCTGCTATCCATCAAGCCAACCACATCCTTGATCGATCGTCGCCACAGGGCATACCGACGTAATGACTATCACCGCTGATCCAGCACGGTGAACCCCTAGTTCTCCTATGCCCGTAGGGGCCACGGATTCCCAGGTCACACGCAGTGGCAACGAATCGCTCAACTCCCCGAAACACATCGGACGCACGACATGTGATATCGACGTCAGTAATTGCCGCCGGCACCGCGTAGCACGCGCCAAGGTGTTCCGCGCCGAGGTGGCTGCACGTCCGCACAGCGGGACGCGGCATCCCACGCTCTGATTGACGATGATCGATCACGCGATCCATTCGTCAGACTGACCAACATCGCTGTCAGTGTGCCAGGGATCACCGCGAGCAACAAGGTTTGGCGCGAGTAGGGCGGAAATGACCCGGCATGCAGGACGAATGCCCGAAGTGTGCGCTGCGTCACACATCGTGGCACCCCTTGCCTCGCAGGGATAGGGGTTAACGGCCGCCGTGCCCGACGTTAGCTTCGATCTGGCCTCGCGCGCCTGAGCGGGCGACGACAGACGACCACGGAGGCACC (double strand) [fadS5R1p]”, the binding result in data set [1] is on record as “binds”; in data set [2] it was “no binding”; in data set [3] it was “binds”.
